PubChem BioAssay AID1259425, University of Nebraska Medical Center – 2018
The deposit covers about 14,000 reagents; this is an unselected part. Not all columns of the deposit are shown. Reagent sequences are not shown. Not stated in the record: the time to read-out.

- Screen: 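Seek colon cancer weak points whose silencing resembles KSR1 loss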 (primary screen)
- Cell system: HCT116 human colon cancer cells
- Reagent: siRNA pool against human genes, 50 nM siRNA
- Detection: 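mRNA of six signature genes measured together by branched-DNA assay after 50 nM siRNA pool, blank removed, divided by geometric mean of two housekeeping genes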
- Direction: BNIP3L mRNA: higher = more BNIP3L transcript after knockdown; NDRG1 mRNA: higher = more NDRG1 transcript after knockdown

RPL41 (ribosomal protein L41): BNIP3L mRNA, set 1 = 0.106; NDRG1 mRNA, set 1 = 0.0865
RPS24 (ribosomal protein S24): BNIP3L mRNA, set 1 = 0.118; NDRG1 mRNA, set 1 = 0.168
LAPTM5 (lysosomal protein transmembrane 5): BNIP3L mRNA, set 1 = 0.201; NDRG1 mRNA, set 1 = 0.18
CERS2 (ceramide synthase 2): BNIP3L mRNA, set 1 = 0.0577; NDRG1 mRNA, set 1 = 0.435
SHTN1 (shootin 1): BNIP3L mRNA, set 1 = 0.135; NDRG1 mRNA, set 1 = 0.144
IL19 (interleukin 19): BNIP3L mRNA, set 1 = 0.0994; NDRG1 mRNA, set 1 = 0.609
TMED3 (transmembrane p24 trafficking protein 3): BNIP3L mRNA, set 1 = 0.479; NDRG1 mRNA, set 1 = 1.71
ABCD1 (ATP binding cassette subfamily D member 1): BNIP3L mRNA, set 1 = 0.122; NDRG1 mRNA, set 1 = 0.279
HNRNPUL1 (heterogeneous nuclear ribonucleoprotein U like 1): BNIP3L mRNA, set 1 = 0.247; NDRG1 mRNA, set 1 = 0.328
CEP43 (centrosomal protein 43): BNIP3L mRNA, set 1 = 0.0488; NDRG1 mRNA, set 1 = 0.293
NOTCH4 (notch receptor 4): BNIP3L mRNA, set 1 = 0.102; NDRG1 mRNA, set 1 = 0.388
ANKK1 (ankyrin repeat and kinase domain containing 1): BNIP3L mRNA, set 1 = 0.137; NDRG1 mRNA, set 1 = 0.0952
DUX1 (double homeobox 1): BNIP3L mRNA, set 1 = 0.143; NDRG1 mRNA, set 1 = 0.135
MC1R (melanocortin 1 receptor): BNIP3L mRNA, set 1 = 0.252; NDRG1 mRNA, set 1 = 0.238
CLUHP3 (CLUH pseudogene 3): BNIP3L mRNA, set 1 = 0.141; NDRG1 mRNA, set 1 = 0.324
HMGN2 (high mobility group nucleosomal binding domain 2): BNIP3L mRNA, set 1 = 0.125; NDRG1 mRNA, set 1 = 0.217
SSTR4 (somatostatin receptor 4): BNIP3L mRNA, set 1 = 0.137; NDRG1 mRNA, set 1 = 0.241
CAV1 (caveolin 1): BNIP3L mRNA, set 1 = 0.0464; NDRG1 mRNA, set 1 = 0.0944

Reprinted from the listing, 2 entries:
DUX1 (double homeobox 1): BNIP3L mRNA, set 1 = 0.143; NDRG1 mRNA, set 1 = 0.135
MC1R (melanocortin 1 receptor): BNIP3L mRNA, set 1 = 0.252; NDRG1 mRNA, set 1 = 0.238

The list goes on:
SOCS4 (suppressor of cytokine signaling 4): BNIP3L mRNA, set 1 = 0.0902; NDRG1 mRNA, set 1 = 0.158
CBFA2T2 (CBFA2/RUNX1 partner transcriptional co-repressor 2): BNIP3L mRNA, set 1 = 0.24; NDRG1 mRNA, set 1 = 0.299
MMP23B (matrix metallopeptidase 23B): BNIP3L mRNA, set 1 = 0.122; NDRG1 mRNA, set 1 = 0.138
ADAM20 (ADAM metallopeptidase domain 20): BNIP3L mRNA, set 1 = 0.0279; NDRG1 mRNA, set 1 = 0.0789
ZNF639 (zinc finger protein 639): BNIP3L mRNA, set 1 = 0.168; NDRG1 mRNA, set 1 = 0.084
HEATR5B (HEAT repeat containing 5B): BNIP3L mRNA, set 1 = 0.0827; NDRG1 mRNA, set 1 = 0.262
PDE7A (phosphodiesterase 7A): BNIP3L mRNA, set 1 = 0.0581; NDRG1 mRNA, set 1 = 0.389
PDZRN3 (PDZ domain containing ring finger 3): BNIP3L mRNA, set 1 = 0.0623; NDRG1 mRNA, set 1 = 0.121
PPP2R5D (protein phosphatase 2 regulatory subunit B'delta): BNIP3L mRNA, set 1 = 0.0981; NDRG1 mRNA, set 1 = 0.169
GDF1 (growth differentiation factor 1): BNIP3L mRNA, set 1 = 0.112; NDRG1 mRNA, set 1 = 0.412
